Measurements reported in PubChem BioAssay AID686937 (Drosophila RNAi Screening Center, 2013)
In all, the deposit lists about 23,000 reagents; this is a random part of those that have a named target and a result. 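Reduced-secretion tags in replicate 1 do not always agree with the z-scores; no criterion for assigning the tags was given.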 The numbers tell different reagents against one gene apart. Further read-outs or replicates are left out here. Not stated in the record: the amount of reagent.

- Purpose: 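Genes whose loss weakens secretory pathway function in fly cells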 (primary screen)
- Cells: Drosophila S2 cells expressing secreted horseradish peroxidase
- Knock-down reagent: long dsRNA against Drosophila genes
- Timing: about 5.5 days (5 days dsRNA, then 12 h reporter induction)
- Challenge: reporter expression induced after 5 days of dsRNA, read 12 h later; inducer not stated
- Read-out: 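Chemiluminescent measurement of peroxidase in the medium 12 h after reporter induction, following 5 days of dsRNA, given as a z-score per plate; higher means more secretion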
- Direction: z-score: higher = more reporter secreted into medium

Peritrophin-15b — z-score, replicate 1 = 0.28
qless #1 — z-score, replicate 1 = -0.34
qless #2 — z-score, replicate 1 = -0.28
Su(var)2-10 — z-score, replicate 1 = 0.45
CG6614 — z-score, replicate 1 = -6.72; phenotype, replicate 1 = reduced secretion
CG15279 — z-score, replicate 1 = 0.44
CG43736 #1 — z-score, replicate 1 = -0.01
CG43736 #2 — z-score, replicate 1 = 0.3
axed #1 — z-score, replicate 1 = 0.63
axed #2 — z-score, replicate 1 = 0.38
Lamp1 — z-score, replicate 1 = -0.32
Irbp — z-score, replicate 1 = 0.22
sced — z-score, replicate 1 = 0.29
Trpm #1 — z-score, replicate 1 = 0.35
Trpm #2 — z-score, replicate 1 = 0.09
Hacd1 — z-score, replicate 1 = -0.07
oys #1 — z-score, replicate 1 = -2.31; phenotype, replicate 1 = reduced secretion
oys #2 — z-score, replicate 1 = 0.3
Chsy #1 — z-score, replicate 1 = 0.38
Chsy #2 — z-score, replicate 1 = 0.58
CG8117 — z-score, replicate 1 = 0.47
GCS2beta — z-score, replicate 1 = 0.68
Ire1 — z-score, replicate 1 = 0.34
Gas41 — z-score, replicate 1 = -0.09
CG7966 — z-score, replicate 1 = 0.18
CR31824 — z-score, replicate 1 = 0.31
Vha36-2 — z-score, replicate 1 = 0.09
a10 — z-score, replicate 1 = 0.14
CG34168 — z-score, replicate 1 = -0.39
CG9377 — z-score, replicate 1 = 0.32
nAChRalpha6 #1 — z-score, replicate 1 = 0.69
nAChRalpha6 #2 — z-score, replicate 1 = -0.88
nAChRalpha6 #3 — z-score, replicate 1 = 0.39

A portion of the results above:
CG43736 #1 — z-score, replicate 1 = -0.01
CG43736 #2 — z-score, replicate 1 = 0.3
axed #1 — z-score, replicate 1 = 0.63
axed #2 — z-score, replicate 1 = 0.38

Next records follow:
CG14671 — z-score, replicate 1 = 0.48
nxf4 — z-score, replicate 1 = 0.19
Taf13 — z-score, replicate 1 = -0.66
Mcm5 — z-score, replicate 1 = 0.15
CG13837 — z-score, replicate 1 = 0.49
AMPKalpha — z-score, replicate 1 = 0.8
if — z-score, replicate 1 = 0.19
CG14855 — z-score, replicate 1 = 0.63
CG7768 — z-score, replicate 1 = 0.3
Atg13 — z-score, replicate 1 = 0.22
Cdc42 — z-score, replicate 1 = 0.06
CG14089 — z-score, replicate 1 = 0.25
Dhx15 — z-score, replicate 1 = -0.04
CG32755 — z-score, replicate 1 = 0.29
SIFaR #1 — z-score, replicate 1 = -0.08
SIFaR #2 — z-score, replicate 1 = 0.38
Ir76a — z-score, replicate 1 = 0.26
Traf6 — z-score, replicate 1 = 0.34
